Out of some 360,000 compounds screened, about 9,100 (2.5%) were called active. Inconclusive results, whose numbers are uncertain, are shown with a selection of clear calls. Rule as the data show it: active = max response below about -50%; inconclusive = no clear call, values can overlap the other calls; inactive = above that.
molecular target: D(3) dopamine receptor (Homo sapiens) (UniProt P35462); assay: qHTS of D3 Dopamine Receptor Antagonist: qHTS; settings: D3R cells, DiscoveRx beta-arrestin luminescence, antagonist mode; stronger effect = lower value
Method in brief: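 Cells plated overnight at 1500 cells/well, then exposed to library compounds with dopamine controls for 90 minutes at 37 degrees C. DiscoveRx reagent added for 30–60 minutes at room temperature; luminescence read, quantitative HTS format.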
% is scaled to controls: 0 for no effect and ±100 for the full control effect.

Chains of the proteins cited; added tags and fusions are not shown.
UniProt P35462, whole entry, looked up: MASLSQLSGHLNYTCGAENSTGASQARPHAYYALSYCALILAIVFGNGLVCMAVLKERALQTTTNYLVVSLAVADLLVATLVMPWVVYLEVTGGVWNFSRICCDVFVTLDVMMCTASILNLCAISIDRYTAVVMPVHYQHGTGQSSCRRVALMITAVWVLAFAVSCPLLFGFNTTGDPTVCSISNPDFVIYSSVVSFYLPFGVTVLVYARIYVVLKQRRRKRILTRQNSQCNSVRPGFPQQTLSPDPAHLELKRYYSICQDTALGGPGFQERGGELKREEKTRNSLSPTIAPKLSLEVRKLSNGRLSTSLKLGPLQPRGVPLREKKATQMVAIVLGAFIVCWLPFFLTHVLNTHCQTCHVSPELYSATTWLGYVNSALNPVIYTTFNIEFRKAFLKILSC

Max response, negative = inhibition, inconclusive:
CCc1ccc([C@@H]2CC=C(C(=O)O)[C@H](c3ccccc3)N2S(=O)(=O)c2ccc(C)cc2)cc1 -47.7%, CN1CCN(C(=O)N2c3ccccc3C=Cc3ccccc32)CC1 -35.1%, Cc1nc2scc(-c3ccc(Cl)cc3)c2c(=O)o1 -33.3%, O=C1NC(Cc2ccc(O)cc2)c2nc3ccc(Br)cc3c(=O)n2-c2ncccc21 (stereo not given) -33.5%, Cn1c(=O)c2cc(NC(=O)Cc3ccccc3F)ccc2n1-c1ccc(C(C)(C)C)cc1 -35.7%, C=CCN1C=CC(=O)[C@@H](OC(=O)Nc2ccc(Br)cc2)[C@H]1c1ccccc1Br -30.4%, Cc1cc(N2CCCCC2)nc(SCC(=O)c2ccccc2)n1 -30.4%, Cn1ccc2c(N3CCCCC3)cc3c(c21)C1CCC3C1 (stereo not given) -31.6%, NC(N)=NC(=S)Nc1ccc(Cl)cc1 -30.9%, Cc1ccc(SCc2nc3ccccc3n2CC(=O)Nc2c(C)cccc2C)cc1 -31.7%, CC1CCN(Cc2nc(-c3ccccc3)no2)CC1 -37.9%, O=C1CCCc2c1[nH]c1c(Br)cccc21 -31.9%, S=C(Nc1cccc2ccccc12)NN1CCOCC1 -38.2%, Cc1cccc2c(N=Nc3ccc(S(=O)(=O)Nc4ccc(Cl)cc4)cc3[N+](=O)[O-])c(O)[nH]c12 -30.6%, CC(=O)C1=C(O)C(=O)N(CCN2CCOCC2)C1c1ccccc1 (stereo not given) -32.9%, Cc1ccc2[nH]c(CNC(=O)c3ccccc3F)cc2c1 -43.5%, Cc1cc(C)c(C)c(S(=O)(=O)NCc2cccnc2)c1C -32.6%, Clc1ccc(OCc2nnc(-c3ccccc3Br)o2)c(Cl)c1 -30.3%, CC(C)(c1ccccc1)c1ccc(OCC(O)CNC2CCN(Cc3ccccc3)CC2)cc1 (stereo not given) -30.4%, CN1CCC(N(C)CC(=O)Nc2ccccc2N2CCOCC2)CC1 -36.6%, O=C(CN1CCOCC1)NCCC12CC3CC(CC(C3)C1)C2 -34.1%, Cc1n[nH]c(C)c1S(=O)(=O)N1CCC(C(=O)N2CCn3c2nc2ccccc23)CC1 -46.1%, O=C(NC1CCCC1)c1ccc(CN2CCOCC2)cc1 -42.6%, N=c1c(S(=O)(=O)c2ccc(Br)cc2)cc2c(=O)n3ccccc3nc2n1Cc1ccco1 -35.2%, CC(C)CNC(=O)/C=C/c1cccs1 -30.7%, COc1cccc(NC(=O)Cn2c(=O)n(-c3ccccc3)c(=O)c3oc4ccccc4c32)c1 -32.5%, COc1cc(CNCc2ccccc2)ccc1OCC(O)c1ccccc1 (stereo not given) -34.7%, CN(C(=O)c1ccc(NC(=O)Cc2ccc(NC(=O)C3CCCN(S(=O)(=O)c4cccc([N+](=O)[O-])c4)C3)cc2)cc1)C1CCCC1 (stereo not given) -36.9%, COc1ccc(CN2C[C@H]3CON(C)[C@H]3C[C@H]2c2ccc(-c3cccc(F)c3)cc2)cc1 -38.6%, CC1(C(=O)NS(=O)(=O)c2ccc(Cl)s2)CCN1C(=O)c1ccccc1CCc1ccccc1 (stereo not given) -33.1%, Cc1ccccc1OCC(=O)Nc1ccc2c(c1)COC2=O -37%, COc1ccccc1C(CCNCc1ccc(N(C)C)cc1)c1ccc(OC(C)C)cc1 (stereo not given) -37.3%, Nc1nc(CN2CCN(c3ccccc3F)CC2)nc(Nc2ccccc2)n1 -39%, Cc1ccc(C(=O)Nc2nncs2)cc1S(=O)(=O)N1CCOCC1 -36.8%, Clc1ccccc1-c1nc2ccccc2c2nncn12 -41%, Cc1cccc(NC(=S)NCCc2ccccc2)n1 -30.5%, Cc1cccc(NC(=O)C2NC(=O)CC2c2ccccc2)c1C (stereo not given) -30.2%

Max response, negative = inhibition, inactive:
C/C(=N\S(=O)(=O)c1ccc(C)cc1)N1CCN(S(=O)(=O)c2ccccc2)C1C(C)C (stereo not given) 15.7%, S=C(NCc1ccco1)N1CCN(c2ccc(Cl)cc2)CC1 -12.5%, O=C(CNC(=O)c1ccccc1Cl)N/N=C/c1ccc([N+](=O)[O-])s1 -5.44%, COC(CNC(=O)c1c[nH]c2ccc(S(=O)(=O)N3CCC4(CC3)OCCO4)cc2c1=O)OC 20.6%, O=C1CSC(=NC2CCCCC2)N1 -5.91%, CCCOc1ccc(NC(=O)c2c(-c3ccccc3)noc2C)cc1 0%, CCN(CC)c1nc2cc(OC)ccc2cc1C#N 32.4%, CC(C)(C)Nc1nc(SCC(=O)Nc2ccccc2Cl)nc(N2CCOCC2)n1 -2.79%, COC(=O)[C@@]12C[C@@H](CC(=O)NCc3ccccc3)C(=O)N(CCc3ccc(OC)c(OC)c3)C1=CCC(C)(C)C2 13.1%, COc1ccc2nc3c(cc2c1)c(NC(=O)C1CCCO1)nn3CC(C)C (stereo not given) 7.82%, C/C(=N\NC(=O)c1ccc(O)cc1)c1cccc(NC(=O)c2ccccc2C)c1 -10.9%, O=C(Nc1cccc(C(F)(F)F)c1)C1CCCN(c2ncccn2)C1 (stereo not given) 59.7%

Max response, negative = inhibition, active:
CCN(CC)S(=O)(=O)c1cc(-c2nnc(-c3ccc(Br)cc3)o2)ccc1Br -64.8%, O=S1(=O)CC(N2CCN(CC3CC3)CC2)CN1Cc1ccccc1 (stereo not given) -61.4%, COc1ccc(CNC[C@H]2O[C@@H](n3ccc(=O)[nH]c3=O)[C@H](O)[C@@H]2O)cc1OC -58.7%, Cn1ccc2c(N(Cc3ccccc3)Cc3ccccc3)cc3c(c21)C1CCC3C1 (stereo not given) -55.7%, CCCOc1ccccc1-n1sc2c(c1=S)-c1cc(OC)cc3c1N(C(=O)C3=O)C2(C)C -57.4%, O=C(O)c1ccccc1N=Nc1ccc(O)cc1 -71%
